# Test results: patent publication US12036228B2, “Treatment of seizure disorders” (Shackelford Pharma Inc., priority 2022, dated 2024)
# Tested on: male CD-1 mice, 6 Hz (22 mA) corneal stimulus psychomotor seizure
# Assay: Mouse 6 Hz seizure (22 mA) test
# Format: in vivo
# Conditions: 0.08×0.02 mg/kg
# Description: This study assessed the anti-epileptic effects of low doses of dronabinol in the mouse 6 Hz seizure (22 mA) test at 4 dose levels. Sixty male CD-1 mice were randomly allocated to 1 of 7 treatment groups outlined in Table 1 below. The mice were purchased from Charles River Laboratories (St. Constant, Quebec, Canada). On the day of the experiment, general health observations and body weight measurements were performed prior to dosing. Thirty (30) minutes after administration of assigned treatments in Table 1, animals underwent a neurological assessment followed immediately by 6 Hz testing. Descriptions of these procedures are provided below.
# Dronabinol and sodium valproate were dissolved in their respective vehicles on the day of dosing. Treatments were intraperitoneally administered to the lower right quadrant of the abdomen according to standard operating procedures. Treatment group summaries are included in Table 1.
# On the scheduled test day, subjects received a dose of their assigned treatment 30 minutes before the electrical stimulus. Following neurological assessments, animals then received an electrical stimulus (6 Hz, 0.2 millisecond pulse width, 3 second duration, 22 mA) via corneal electrodes moistened with saline (ECT unit 57800; Ugo Basile). […]
compound,measurement,setting,value
CCCCCc1cc(O)c2c(c1)OC(C)(C)[C@@H]1CCC(C)=C[C@@H]21 [Dronabinol],minimum dose where a reduction of seizure severity score may be observed in humans,,1.6 µg/kg
same,"minimum dose where a reduction of seizure severity score may be observed in humans, daily for a 70 kg human",70 kg human,0.112 mg daily
